Measured values taken from PMC5458519, “Splicing modulators act at the branch point adenosine binding pocket defined by the PHF5A–SF3b complex” (Nature Communications, 2017).
Results are given in words; binding and its absence hold for the method and conditions named. Some binding calls cover weakened binding; strength is not graded here.

Sequences of proteins named here, by UniProt entry; tags and fusion partners are left off. Residues count along the entry.
UniProt O75533, residues 454-1304: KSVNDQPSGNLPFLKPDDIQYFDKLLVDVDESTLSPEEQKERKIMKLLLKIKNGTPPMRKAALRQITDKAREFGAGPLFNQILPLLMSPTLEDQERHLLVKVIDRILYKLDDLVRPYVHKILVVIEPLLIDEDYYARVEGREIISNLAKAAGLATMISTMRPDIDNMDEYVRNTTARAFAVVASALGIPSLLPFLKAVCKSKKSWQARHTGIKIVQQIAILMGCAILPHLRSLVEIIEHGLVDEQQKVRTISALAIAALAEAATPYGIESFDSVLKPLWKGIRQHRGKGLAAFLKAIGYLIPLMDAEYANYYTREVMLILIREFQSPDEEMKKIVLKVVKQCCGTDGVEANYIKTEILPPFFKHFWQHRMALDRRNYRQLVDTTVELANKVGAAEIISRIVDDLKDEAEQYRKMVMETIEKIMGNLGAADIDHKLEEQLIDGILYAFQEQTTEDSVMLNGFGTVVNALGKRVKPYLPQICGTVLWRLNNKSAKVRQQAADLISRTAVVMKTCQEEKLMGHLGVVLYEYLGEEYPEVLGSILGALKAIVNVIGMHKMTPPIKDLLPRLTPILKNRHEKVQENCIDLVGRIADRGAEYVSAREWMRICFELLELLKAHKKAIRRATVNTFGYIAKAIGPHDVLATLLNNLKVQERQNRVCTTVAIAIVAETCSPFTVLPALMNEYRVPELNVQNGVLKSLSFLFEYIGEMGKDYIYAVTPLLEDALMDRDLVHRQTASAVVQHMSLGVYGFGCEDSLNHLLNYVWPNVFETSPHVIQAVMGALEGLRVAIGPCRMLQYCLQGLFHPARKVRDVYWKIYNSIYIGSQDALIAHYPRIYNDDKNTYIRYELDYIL
UniProt Q15393: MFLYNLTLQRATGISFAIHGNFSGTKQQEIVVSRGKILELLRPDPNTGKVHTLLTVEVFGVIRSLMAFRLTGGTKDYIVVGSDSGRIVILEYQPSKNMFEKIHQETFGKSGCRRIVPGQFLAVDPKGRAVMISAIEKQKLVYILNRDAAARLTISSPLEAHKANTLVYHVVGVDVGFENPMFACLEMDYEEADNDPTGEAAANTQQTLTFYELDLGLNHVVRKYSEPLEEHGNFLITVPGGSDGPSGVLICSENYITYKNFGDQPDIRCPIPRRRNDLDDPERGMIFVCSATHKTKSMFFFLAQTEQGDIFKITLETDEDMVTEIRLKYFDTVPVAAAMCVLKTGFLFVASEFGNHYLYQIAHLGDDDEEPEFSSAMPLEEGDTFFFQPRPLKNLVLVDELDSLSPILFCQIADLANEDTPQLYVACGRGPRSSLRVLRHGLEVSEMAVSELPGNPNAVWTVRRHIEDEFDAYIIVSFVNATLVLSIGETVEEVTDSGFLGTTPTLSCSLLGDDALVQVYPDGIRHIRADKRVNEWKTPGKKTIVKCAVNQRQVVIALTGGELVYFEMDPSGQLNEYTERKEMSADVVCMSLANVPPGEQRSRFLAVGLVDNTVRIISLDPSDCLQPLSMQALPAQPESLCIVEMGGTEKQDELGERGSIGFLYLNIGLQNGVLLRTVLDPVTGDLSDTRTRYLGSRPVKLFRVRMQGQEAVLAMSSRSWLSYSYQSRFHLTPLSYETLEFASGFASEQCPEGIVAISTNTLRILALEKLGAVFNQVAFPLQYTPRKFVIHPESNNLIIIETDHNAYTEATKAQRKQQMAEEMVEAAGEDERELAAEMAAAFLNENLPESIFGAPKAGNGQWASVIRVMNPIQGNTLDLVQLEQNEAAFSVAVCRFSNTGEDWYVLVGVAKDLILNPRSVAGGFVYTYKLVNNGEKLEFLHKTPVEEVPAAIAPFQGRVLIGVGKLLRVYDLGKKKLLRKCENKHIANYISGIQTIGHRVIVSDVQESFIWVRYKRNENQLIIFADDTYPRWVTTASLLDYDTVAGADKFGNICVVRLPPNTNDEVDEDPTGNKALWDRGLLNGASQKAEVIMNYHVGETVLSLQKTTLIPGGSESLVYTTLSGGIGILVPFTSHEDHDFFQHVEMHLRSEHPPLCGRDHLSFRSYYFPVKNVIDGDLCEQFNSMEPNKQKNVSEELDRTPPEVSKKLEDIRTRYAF

Biological target: SF3B1 HEAT repeat domain (residues 454-1,304), N-terminal FLAG tag (human) (UniProt O75533)
Assay: co-purification of co-expressed proteins (nickel beads, FLAG beads, gel filtration); four baculoviruses co-infected into SF21 cells; lysis in 40 mM HEPES pH 8.0, 500 mM NaCl, 10% glycerol, 1 mM TCEP; batch purification on nickel beads and FLAG beads, then Superdex 200 in 20 mM HEPES pH 8.0, 300 mM NaCl, 10% glycerol, 1 mM TCEP

binding: binds
Substance: SF3B3, full-length, N-terminal His-tag (from UniProt Q15393 1-1217)
